Where two headings read alike, the source gives them in different places. Some of these results come from one statement about several compounds together.
Target: B-Raf (V599E or Wild Type) (Homo sapiens, UniProt P15056)
Test: B-Raf Flash Plate assay
Format: biochemical
Conditions: Peptide 118, 0.5 μM ATP, 60 minutes
[1] = read-out: IC50, inhibition of the enzyme in B-Raf Flash Plate assay
[2] = read-out: IC50 in B-Raf Flash Plate assay

Protein sequences, listed by entry. Tags and fused reporters are not part of them.
UniProt P15056, whole entry, stated change not applied: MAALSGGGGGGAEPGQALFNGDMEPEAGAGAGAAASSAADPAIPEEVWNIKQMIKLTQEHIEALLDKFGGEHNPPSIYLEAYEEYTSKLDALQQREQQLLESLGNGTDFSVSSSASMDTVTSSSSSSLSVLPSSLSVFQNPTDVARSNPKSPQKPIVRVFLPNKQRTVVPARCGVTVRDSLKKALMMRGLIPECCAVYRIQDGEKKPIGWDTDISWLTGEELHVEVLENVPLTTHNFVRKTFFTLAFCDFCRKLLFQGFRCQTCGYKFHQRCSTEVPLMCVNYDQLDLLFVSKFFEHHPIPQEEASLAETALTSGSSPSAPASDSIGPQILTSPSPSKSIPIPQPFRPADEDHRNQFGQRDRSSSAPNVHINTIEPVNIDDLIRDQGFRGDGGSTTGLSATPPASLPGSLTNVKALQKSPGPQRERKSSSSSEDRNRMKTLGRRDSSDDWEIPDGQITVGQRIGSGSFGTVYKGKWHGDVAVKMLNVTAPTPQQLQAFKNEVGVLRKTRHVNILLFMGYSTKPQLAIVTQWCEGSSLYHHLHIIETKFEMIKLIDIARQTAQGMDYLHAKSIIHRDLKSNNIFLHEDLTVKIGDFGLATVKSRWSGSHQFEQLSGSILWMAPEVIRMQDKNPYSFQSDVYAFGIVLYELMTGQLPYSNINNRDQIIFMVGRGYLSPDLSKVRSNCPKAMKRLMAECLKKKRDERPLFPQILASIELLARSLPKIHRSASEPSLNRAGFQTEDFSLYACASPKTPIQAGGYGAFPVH

Q: Which results are given for `CC(C)(C)c1cc(C#N)cc(C(=O)NC2CCc3ccc(Oc4ccnc(NC(=O)C5CC5)c4)cc3C2)c1` (stereo not shown) [Compound I-430, 3-tert-butyl-5-cyano-N-[7-({2-[(cyclopropylcarbonyl)amino]pyridin-4-yl}oxy)-1,2,3,4-tetrahydronaphthalen-2-yl]benzamide]?
A: IC50 [1]: ≤ 1000 nM; IC50 [2]: < 50 nM

Q: How did the IC50 [1] turn out when `CC(C)(C)c1cc(CN)cc(NC(=O)N2CCc3ccc(Oc4ccnc(NC(=O)C5CC5)c4)cc3C2)c1` [Compound I-459, N-[3-(aminomethyl)-5-tert-butylphenyl]-7-({2-[(cyclopropylcarbonyl)amino]pyridin-4-yl}oxy)-3,4-dihydroisoquinoline-2(1H)-carboxamide] was run?
A: ≤ 1000 nM

Q: What about the IC50 [2] of the same compound?
A: < 50 nM

Q: With `CNCc1cc(NC(=O)C2CCc3ccc(Oc4ccnc(C(=O)NC)c4)cc3C2)cc(C(F)(F)F)c1` (stereo not shown) [Compound I-296, N-methyl-4-{[7-({[3-[(methylamino)methyl]-5-(trifluoromethyl)phenyl]amino}carbonyl)-5,6,7,8-tetrahydronaphthalen-2-yl]oxy}pyridine-2-carboxamide] as the compound, how does the IC50 [1] read?
A: ≤ 1000 nM

Q: What about the IC50 [2] of the same compound?
A: < 50 nM

Q: How did the IC50 [1] turn out when `COCCNCc1cc(NC(=O)C2CCc3ccc(Oc4ccnc(NC(=O)C5CC5)c4)cc3C2)cc(C(F)(F)F)c1` (stereo not shown) [Compound I-378, 7-({2-[(cyclopropylcarbonyl)amino]pyridin-4-yl}oxy)-N-[3-{[(2-methoxyethyl)amino]methyl}-5-(trifluoromethyl)phenyl]-1,2,3,4-tetrahydronaphthalene-2-carboxamide] was run?
A: ≤ 1000 nM

Q: And the IC50 [2]?
A: < 50 nM

Q: Which IC50 [1] does the source give for `CNC(=O)c1cc(Oc2ccc3ncc(C(=O)Nc4cc(OCCN5CCCC5)cc(C(F)(F)F)c4)cc3c2)ccn1` [Compound I-365, 6-({2-[(methylamino)carbonyl]pyridin-4-yl}oxy)-N-[3-(2-pyrrolidin-1-ylethoxy)-5-(trifluoromethyl)phenyl]quinoline-3-carboxamide] here?
A: ≤ 1000 nM

Q: And the IC50 [2]?
A: < 50 nM

Q: How did the IC50 [1] turn out when `CC(C)(C)c1cccc(NC(=O)C2=Cc3cc(Oc4ccnc(NC(=O)C5CC5)c4)ccc3OC2)c1` [Compound I-346, N-(3-tert-butylphenyl)-6-({2-[(cyclopropylcarbonyl)amino]pyridin-4-yl}oxy)-2H-chromene-3-carboxamide] was run?
A: ≤ 1000 nM

Q: What about the IC50 [2] of the same compound?
A: < 50 nM

Q: How did the IC50 [1] turn out when `CC(=O)Nc1cc(Oc2ccc3ccc(C(=O)Nc4cccc(C(C)(C)C)c4)cc3c2)ccn1` [Compound I-434, 7-{[2-(acetylamino)pyridin-4-yl]oxy}-N-(3-tert-butylphenyl)-2-naphthamide] was run?
A: ≤ 1000 nM

Q: What about the IC50 [2] of the same compound?
A: < 50 nM

Q: What does the source list for `CNC(=O)c1cc(Oc2ccc3ccc(C(=O)Nc4cc(C(F)(F)F)ccc4OCCN4CCNCC4)cc3c2)ccn1` [Compound I-383, N-methyl-4-{[7-({[2-(2-piperazin-1-ylethoxy)-5-(trifluoromethyl)phenyl]amino}carbonyl)-2-naphthyl]oxy}pyridine-2-carboxamide]?
A: IC50 [1]: ≤ 1000 nM; IC50 [2]: < 50 nM

Q: With `CNC(=O)c1cc(Oc2ccc3c(c2)CC(C(=O)Nc2ccc(CN4CCCC4)c(C(F)(F)F)c2)CC3)ccn1` (stereo not shown) [Compound I-451, N-methyl-4-{[7-({[4-(pyrrolidin-1-ylmethyl)-3-(trifluoromethyl)phenyl]amino}carbonyl)-5,6,7,8-tetrahydronaphthalen-2-yl]oxy}pyridine-2-carboxamide] as the compound, how does the IC50 [2] read?
A: < 50 nM

Q: What does the source list for `COC(=O)Nc1cc(Oc2ccc3c(c2)C=C(C(=O)Nc2cc(CN4CCCC4)cc(C(F)(F)F)c2)CO3)ccn1` [Compound I-372, methyl (4-{[3-({[3-(pyrrolidin-1-ylmethyl)-5-(trifluoromethyl)phenyl]amino}carbonyl)-2H-chromen-6-yl]oxy}pyridin-2-yl)carbamate]?
A: IC50 [1]: ≤ 1000 nM; IC50 [2]: < 50 nM

Q: How did the IC50 [1] turn out when `CNC(=O)c1cc(Oc2ccc3c(c2)C=C(C(=O)Nc2ccc(CN)c(C(F)(F)F)c2)CO3)ccn1` [Compound I-143, 4-{[3-({[4-(aminomethyl)-3-(trifluoromethyl)phenyl]amino}carbonyl)-2H-chromen-6-yl]oxy}-N-methylpyridine-2-carboxamide] was run?
A: ≤ 1000 nM

Q: What about the IC50 [2] of the same compound?
A: < 50 nM

Q: `O=C(NC1COc2ccc(Oc3ccnc(C4=NCCN4)c3)cc2C1)c1ccc(Cl)c(C(F)(F)F)c1` (stereo not shown) [Compound I-445, 4-chloro-N-(6-{[2-(4,5-dihydro-1H-imidazol-2-yl)pyridin-4-yl]oxy}-3,4-dihydro-2H-chromen-3-yl)-3-(trifluoromethyl)benzamide] was tested. Which IC50 [1] did it give?
A: ≤ 1000 nM

Q: What about the IC50 [2] of the same compound?
A: < 50 nM

Q: `COC(=O)Nc1cc(Oc2ccc3c(c2)CC(C(=O)Nc2cc(OCCN4CCCC4)cc(C(F)(F)F)c2)CC3)ccn1` (stereo not shown) [Compound I-227, methyl (4-{[7-({[3-(2-pyrrolidin-1-ylethoxy)-5-(trifluoromethyl)phenyl]amino}carbonyl)-5,6,7,8-tetrahydronaphthalen-2-yl]oxy}pyridin-2-yl)carbamate] was tested. Which IC50 [1] did it give?
A: ≤ 1000 nM

Q: What about the IC50 [2] of the same compound?
A: < 50 nM

Q: What does the source list for `O=C(Nc1cc(Oc2ccc3c(c2)CN(C(=O)Nc2ccc(Cl)c(C(F)(F)F)c2)CC3)ccn1)C1CC1` [Compound I-259, N-[4-chloro-3-(trifluoromethyl)phenyl]-7-({2-[(cyclopropylcarbonyl)amino]pyridin-4-yl}oxy)-3,4-dihydroisoquinoline-2(1H)-carboxamide]?
A: IC50 [1]: ≤ 1000 nM; IC50 [2]: < 50 nM

Q: How did the IC50 [1] turn out when `O=C(Nc1cc(CN2CC[C@H](F)C2)cc(C(F)(F)F)c1)C1=Cc2cc(Oc3ccnc(NC(=O)C4CC4)c3)ccc2OC1` [Compound I-186, 6-({2-[(cyclopropylcarbonyl)amino]pyridin-4-yl}oxy)-N-[3-{[(3S)-3-fluoropyrrolidin-1-yl]methyl}-5-(trifluoromethyl)phenyl]-2H-chromene-3-carboxamide] was run?
A: ≤ 1000 nM

Q: What about the IC50 [2] of the same compound?
A: < 50 nM

Q: For `CC(C)(C)c1cc(NC(=O)C2CCc3ccc(Oc4ccnc(NC(=O)CN5CCOCC5)c4)cc3C2)ccc1F` (stereo not shown) [Compound I-373, N-(3-tert-butyl-4-fluorophenyl)-7-({2-[(morpholin-4-ylacetyl)amino]pyridin-4-yl}oxy)-1,2,3,4-tetrahydronaphthalene-2-carboxamide], which IC50 [1] is on record?
A: ≤ 1000 nM

Q: Which IC50 [1] does the source give for `CC(=O)Nc1cc(Oc2ccc3c(c2)CC(C(=O)Nc2ccccc2)CC3)ccn1` (stereo not shown) [Compound I-232, 7-{[2-(acetylamino)pyridin-4-yl]oxy}-N-phenyl-1,2,3,4-tetrahydronaphthalene-2-carboxamide] here?
A: ≤ 1000 nM

Q: How did the IC50 [1] turn out when `NCc1cc(NC(=O)C2CCc3cc(F)c(Oc4ccnc(NC(=O)C5CC5)c4)cc3C2)cc(C(F)(F)F)c1` (stereo not shown) [Compound I-363, N-[3-(aminomethyl)-5-(trifluoromethyl)phenyl]-7-({2-[(cyclopropylcarbonyl)amino]pyridin-4-yl}oxy)-6-fluoro-1,2,3,4-tetrahydronaphthalene-2-carboxamide] was run?
A: ≤ 1000 nM

Q: What about the IC50 [2] of the same compound?
A: < 50 nM

Q: Which results are given for `CCC(=O)Nc1cc(Oc2ccc3c(c2)CC(C(=O)Nc2cc(CNC)cc(C(F)(F)F)c2)CC3)ccn1` (stereo not shown) [Compound I-406, N-[3-[(methylamino)methyl]-5-(trifluoromethyl)phenyl]-7-{[2-(propionylamino)pyridin-4-yl]oxy}-1,2,3,4-tetrahydronaphthalene-2-carboxamide]?
A: IC50 [1]: ≤ 1000 nM; IC50 [2]: < 50 nM

Q: Which IC50 [1] does the source give for `CC(C)(C)c1cccc(NC(=O)C2CCc3ccc(Oc4ccnc(NC(=O)OC[C@@H](O)CO)c4)cc3C2)c1` (stereo partly drawn) [Compound I-272, (2S)-2,3-dihydroxypropyl {4-[(7-{[(3-tert-butylphenyl)amino]carbonyl}-5,6,7,8-tetrahydronaphthalen-2-yl)oxy]pyridin-2-yl}carbamate] here?
A: ≤ 1000 nM

Q: And the IC50 [2]?
A: < 50 nM

Reference: patent US8110687B2, “Bicyclic compounds with kinase inhibitory activity” (Millennium Pharmaceuticals, Inc., priority 2005, dated 2012)
